Some of the results follow. Hit calls seldom repeat between salt and free forms of one compound.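 In K562 cells expressing nanoluciferase-fused kinases, luminescence was recorded at 4 h intervals between 2 and 18 h, normalized as percent of control with DMSO at 100% and a positive control at 0%. A significant (2 sigma) signal drop marks a time point as decreased. The authors' rule for a hit is not shown and takes in more than the number of time points.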
What was measured:
Assay in all cases: number of time points (of 5) at which kinase-Nluc abundance scored as decreased, DMSO-normalised (count); higher = more persistent destabilization
[1] = compound: CC(C)Oc1ccc(-c2nn([C@@H](C)c3oc4ccc(F)cc4c(=O)c3-c3cccc(F)c3)c3ncnc(N)c23)cc1F [Umbralisib]; details: 2.5 µM; K562; 2-18 h
[2] = compound: CCCC(=O)Nc1ncnc2c1ncn2[C@@H]1O[C@@H]2COP(=O)(O)O[C@H]2[C@H]1OC(=O)CCC [Bucladesine (calcium)]; details: 10 µM; K562; 2-18 h
[3] = compound: CCCC(=O)Nc1ncnc2c1ncn2[C@@H]1O[C@@H]2COP(=O)(O)O[C@H]2[C@H]1OC(=O)CCC [Bucladesine (sodium)]; details: 10 µM; K562; 2-18 h
[4] = compound: CCCCCCCCc1ccc(CCC(N)(CO)CO)cc1 [Fingolimod (hydrochloride)]; details: 2.5 µM; K562; 2-18 h
[5] = compound: CCCCCCCCc1ccc(CCC(N)(CO)CO)cc1 [Fingolimod]; details: 2.5 µM; K562; 2-18 h
[6] = compound: CCN(CC)CC(=O)Nc1c(C)cccc1C [Lidocaine (hydrochloride)]; details: 10 µM; K562; 2-18 h
[7] = compound: CCN(CC)CC(=O)Nc1c(C)cccc1C [Lidocaine]; details: 10 µM; K562; 2-18 h
[8] = compound: CCN(CC)Cc1ccc(OC)c(-c2cc3c(-c4ccc(C(=O)O)c(C(C)C)c4)ccnc3[nH]2)c1; details: K562, 2-18 h
[9] = compound: CCS(=O)(=O)N1CC(CC#N)(n2cc(-c3ncnc4[nH]ccc34)cn2)C1 [Baricitinib (phosphate)]; details: 10 µM; K562; 2-18 h
[10] = compound: CCS(=O)(=O)N1CC(CC#N)(n2cc(-c3ncnc4[nH]ccc34)cn2)C1 [Baricitinib]; details: 10 µM; K562; 2-18 h
[11] = compound: CCS(=O)(=O)N1CCN(c2ccc(Nc3ncc(C(N)=O)c(NC4CC4)n3)cc2)CC1 [Cerdulatinib (hydrochloride)]; details: 10 µM; K562; 2-18 h
[12] = compound: CCS(=O)(=O)N1CCN(c2ccc(Nc3ncc(C(N)=O)c(NC4CC4)n3)cc2)CC1 [Cerdulatinib]; details: 10 µM; K562; 2-18 h
[13] = compound: CCc1nc(C(N)=O)c(Nc2ccc(N3CCC(N4CCN(C)CC4)CC3)c(OC)c2)nc1NC1CCOCC1 [Gilteritinib hemifumarate]; details: 2 µM; K562; 2-18 h
[14] = compound: CCc1nc(C(N)=O)c(Nc2ccc(N3CCC(N4CCN(C)CC4)CC3)c(OC)c2)nc1NC1CCOCC1 [Gilteritinib]; details: 2 µM; K562; 2-18 h
[15] = compound: CN(C)C(=N)NC(=N)N [Metformin (hydrochloride)]; details: 10 µM; K562; 2-18 h
[16] = compound: CN(C)C(=N)NC(=N)N [Metformin]; details: 10 µM; K562; 2-18 h
[17] = compound: CN(C)C(=O)c1cc2cnc(Nc3ccc(N4CCNCC4)cn3)nc2n1C1CCCC1 [Ribociclib hydrochloride]; details: 2.5 µM; K562; 2-18 h
[18] = compound: CN(C)C(=O)c1cc2cnc(Nc3ccc(N4CCNCC4)cn3)nc2n1C1CCCC1 [Ribociclib succinate hydrate]; details: 2.5 µM; K562; 2-18 h
[19] = compound: CN(C)C(=O)c1cc2cnc(Nc3ccc(N4CCNCC4)cn3)nc2n1C1CCCC1 [Ribociclib succinate]; details: 10 µM; K562; 2-18 h
[20] = compound: CN(C)C(=O)c1cc2cnc(Nc3ccc(N4CCNCC4)cn3)nc2n1C1CCCC1 [Ribociclib]; details: 10 µM; K562; 2-18 h

Protein sequences, listed by entry. Tags and fused reporters are not part of them. Lines headed by an entry give the natural chain unless they say otherwise; changes in a name come on top.
UniProt Q16288, whole entry, looked up: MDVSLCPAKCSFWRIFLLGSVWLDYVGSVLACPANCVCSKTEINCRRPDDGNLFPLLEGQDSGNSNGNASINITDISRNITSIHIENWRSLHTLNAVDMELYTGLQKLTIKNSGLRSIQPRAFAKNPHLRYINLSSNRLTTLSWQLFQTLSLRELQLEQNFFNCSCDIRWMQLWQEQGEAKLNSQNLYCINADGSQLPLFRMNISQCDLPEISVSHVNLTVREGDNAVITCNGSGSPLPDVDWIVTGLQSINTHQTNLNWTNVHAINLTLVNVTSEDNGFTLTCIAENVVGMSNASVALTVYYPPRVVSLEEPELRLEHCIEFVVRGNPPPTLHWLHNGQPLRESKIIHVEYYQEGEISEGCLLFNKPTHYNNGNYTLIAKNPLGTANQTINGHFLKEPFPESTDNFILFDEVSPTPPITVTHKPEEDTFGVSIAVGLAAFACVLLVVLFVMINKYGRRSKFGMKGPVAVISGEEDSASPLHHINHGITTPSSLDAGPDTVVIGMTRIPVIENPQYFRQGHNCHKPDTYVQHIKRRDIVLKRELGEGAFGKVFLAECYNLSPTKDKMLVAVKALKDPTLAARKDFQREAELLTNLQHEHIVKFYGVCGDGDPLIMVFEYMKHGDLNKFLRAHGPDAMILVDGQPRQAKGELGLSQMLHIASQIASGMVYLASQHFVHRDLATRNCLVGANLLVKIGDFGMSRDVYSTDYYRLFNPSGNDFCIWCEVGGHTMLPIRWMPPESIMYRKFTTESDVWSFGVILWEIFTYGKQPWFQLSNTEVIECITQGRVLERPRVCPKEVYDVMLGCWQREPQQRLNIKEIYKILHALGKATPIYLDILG
UniProt P14616: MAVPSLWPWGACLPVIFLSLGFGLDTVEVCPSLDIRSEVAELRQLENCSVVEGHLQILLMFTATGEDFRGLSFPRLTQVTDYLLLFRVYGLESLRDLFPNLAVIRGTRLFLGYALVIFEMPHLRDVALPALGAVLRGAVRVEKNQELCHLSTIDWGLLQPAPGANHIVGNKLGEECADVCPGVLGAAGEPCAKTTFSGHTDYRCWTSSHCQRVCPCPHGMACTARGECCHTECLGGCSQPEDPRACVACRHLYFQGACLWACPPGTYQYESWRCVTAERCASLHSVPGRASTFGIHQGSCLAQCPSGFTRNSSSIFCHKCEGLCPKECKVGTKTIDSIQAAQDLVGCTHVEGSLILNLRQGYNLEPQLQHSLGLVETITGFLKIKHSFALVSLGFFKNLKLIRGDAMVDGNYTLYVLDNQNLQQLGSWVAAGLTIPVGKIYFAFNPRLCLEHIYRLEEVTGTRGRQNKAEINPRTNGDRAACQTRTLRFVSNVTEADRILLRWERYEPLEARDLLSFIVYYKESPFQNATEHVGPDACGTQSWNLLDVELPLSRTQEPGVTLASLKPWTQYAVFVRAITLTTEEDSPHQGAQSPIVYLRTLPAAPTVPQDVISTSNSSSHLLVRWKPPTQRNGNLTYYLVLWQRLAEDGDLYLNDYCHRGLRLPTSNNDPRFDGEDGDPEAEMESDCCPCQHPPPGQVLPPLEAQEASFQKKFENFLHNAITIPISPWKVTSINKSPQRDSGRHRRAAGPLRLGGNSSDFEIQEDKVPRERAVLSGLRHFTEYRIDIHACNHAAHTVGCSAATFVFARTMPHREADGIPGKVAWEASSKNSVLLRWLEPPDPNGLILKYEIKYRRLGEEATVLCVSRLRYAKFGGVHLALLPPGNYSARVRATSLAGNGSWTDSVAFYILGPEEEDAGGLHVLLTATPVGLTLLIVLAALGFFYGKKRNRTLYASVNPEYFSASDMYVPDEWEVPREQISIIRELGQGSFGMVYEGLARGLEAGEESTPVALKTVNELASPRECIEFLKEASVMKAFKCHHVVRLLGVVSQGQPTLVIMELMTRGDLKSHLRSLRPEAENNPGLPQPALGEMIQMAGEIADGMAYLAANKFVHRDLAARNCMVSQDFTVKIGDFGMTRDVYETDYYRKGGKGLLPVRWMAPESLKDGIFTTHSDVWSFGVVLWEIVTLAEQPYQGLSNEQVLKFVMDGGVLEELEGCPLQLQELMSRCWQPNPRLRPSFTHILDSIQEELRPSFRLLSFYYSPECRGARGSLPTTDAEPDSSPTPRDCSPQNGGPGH
UniProt P48729: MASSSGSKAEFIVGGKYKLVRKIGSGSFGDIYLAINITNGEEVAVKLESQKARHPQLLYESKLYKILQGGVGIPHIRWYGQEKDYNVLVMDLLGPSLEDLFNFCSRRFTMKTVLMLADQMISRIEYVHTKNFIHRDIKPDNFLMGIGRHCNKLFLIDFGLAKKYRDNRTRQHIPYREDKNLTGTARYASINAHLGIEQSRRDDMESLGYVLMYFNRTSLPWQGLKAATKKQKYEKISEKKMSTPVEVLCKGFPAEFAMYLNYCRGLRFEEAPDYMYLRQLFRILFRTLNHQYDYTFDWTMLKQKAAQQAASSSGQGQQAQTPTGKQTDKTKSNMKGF
UniProt Q15131: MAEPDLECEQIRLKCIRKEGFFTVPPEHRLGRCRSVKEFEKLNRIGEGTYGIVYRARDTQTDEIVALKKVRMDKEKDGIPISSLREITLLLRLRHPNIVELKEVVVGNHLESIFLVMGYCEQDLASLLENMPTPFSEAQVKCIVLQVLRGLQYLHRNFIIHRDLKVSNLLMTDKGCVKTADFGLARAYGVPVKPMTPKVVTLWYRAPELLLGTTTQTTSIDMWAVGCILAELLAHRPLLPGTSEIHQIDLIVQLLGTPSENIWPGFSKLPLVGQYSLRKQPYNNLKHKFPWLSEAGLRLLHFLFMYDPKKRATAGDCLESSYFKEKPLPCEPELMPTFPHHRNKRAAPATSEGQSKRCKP
UniProt P07333, whole entry: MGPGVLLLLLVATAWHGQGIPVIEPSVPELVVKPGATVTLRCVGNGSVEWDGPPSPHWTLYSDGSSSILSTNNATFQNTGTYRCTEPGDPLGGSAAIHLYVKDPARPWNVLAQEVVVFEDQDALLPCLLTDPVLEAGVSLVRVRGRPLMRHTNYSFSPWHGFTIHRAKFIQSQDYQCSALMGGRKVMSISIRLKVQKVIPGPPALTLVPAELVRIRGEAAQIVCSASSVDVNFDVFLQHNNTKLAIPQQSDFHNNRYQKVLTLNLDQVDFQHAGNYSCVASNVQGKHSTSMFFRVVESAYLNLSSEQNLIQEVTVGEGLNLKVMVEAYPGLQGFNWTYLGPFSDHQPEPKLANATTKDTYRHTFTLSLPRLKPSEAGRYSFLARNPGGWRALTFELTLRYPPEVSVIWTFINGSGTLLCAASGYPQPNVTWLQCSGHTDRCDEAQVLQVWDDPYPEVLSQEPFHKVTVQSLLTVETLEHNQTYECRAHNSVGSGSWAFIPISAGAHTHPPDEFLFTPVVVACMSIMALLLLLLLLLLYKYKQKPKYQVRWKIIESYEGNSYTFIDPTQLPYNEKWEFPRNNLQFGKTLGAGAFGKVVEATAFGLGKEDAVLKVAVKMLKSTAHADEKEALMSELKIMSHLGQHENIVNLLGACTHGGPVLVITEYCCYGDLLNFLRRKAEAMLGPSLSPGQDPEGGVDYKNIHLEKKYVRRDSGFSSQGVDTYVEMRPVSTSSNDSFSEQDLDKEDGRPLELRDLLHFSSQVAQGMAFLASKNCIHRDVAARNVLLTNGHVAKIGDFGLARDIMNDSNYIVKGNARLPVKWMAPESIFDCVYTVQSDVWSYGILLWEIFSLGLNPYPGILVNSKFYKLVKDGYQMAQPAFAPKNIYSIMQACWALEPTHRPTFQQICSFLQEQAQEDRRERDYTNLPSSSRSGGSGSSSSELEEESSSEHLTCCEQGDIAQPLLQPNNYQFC
UniProt O15530: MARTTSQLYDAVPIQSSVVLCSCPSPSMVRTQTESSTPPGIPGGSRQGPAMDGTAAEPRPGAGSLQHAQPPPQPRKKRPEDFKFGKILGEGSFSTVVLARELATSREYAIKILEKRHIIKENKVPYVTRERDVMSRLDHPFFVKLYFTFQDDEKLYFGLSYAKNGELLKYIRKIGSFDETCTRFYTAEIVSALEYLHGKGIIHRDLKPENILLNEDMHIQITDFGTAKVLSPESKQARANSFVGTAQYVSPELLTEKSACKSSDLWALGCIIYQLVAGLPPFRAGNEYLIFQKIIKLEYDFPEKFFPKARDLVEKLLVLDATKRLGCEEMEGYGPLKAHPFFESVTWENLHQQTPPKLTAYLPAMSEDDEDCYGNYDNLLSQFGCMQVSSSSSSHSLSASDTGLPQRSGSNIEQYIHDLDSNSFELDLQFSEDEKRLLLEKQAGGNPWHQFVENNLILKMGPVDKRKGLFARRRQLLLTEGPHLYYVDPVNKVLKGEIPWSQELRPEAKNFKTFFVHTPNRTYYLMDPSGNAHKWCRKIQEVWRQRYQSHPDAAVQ
UniProt Q05397, whole entry, looked up: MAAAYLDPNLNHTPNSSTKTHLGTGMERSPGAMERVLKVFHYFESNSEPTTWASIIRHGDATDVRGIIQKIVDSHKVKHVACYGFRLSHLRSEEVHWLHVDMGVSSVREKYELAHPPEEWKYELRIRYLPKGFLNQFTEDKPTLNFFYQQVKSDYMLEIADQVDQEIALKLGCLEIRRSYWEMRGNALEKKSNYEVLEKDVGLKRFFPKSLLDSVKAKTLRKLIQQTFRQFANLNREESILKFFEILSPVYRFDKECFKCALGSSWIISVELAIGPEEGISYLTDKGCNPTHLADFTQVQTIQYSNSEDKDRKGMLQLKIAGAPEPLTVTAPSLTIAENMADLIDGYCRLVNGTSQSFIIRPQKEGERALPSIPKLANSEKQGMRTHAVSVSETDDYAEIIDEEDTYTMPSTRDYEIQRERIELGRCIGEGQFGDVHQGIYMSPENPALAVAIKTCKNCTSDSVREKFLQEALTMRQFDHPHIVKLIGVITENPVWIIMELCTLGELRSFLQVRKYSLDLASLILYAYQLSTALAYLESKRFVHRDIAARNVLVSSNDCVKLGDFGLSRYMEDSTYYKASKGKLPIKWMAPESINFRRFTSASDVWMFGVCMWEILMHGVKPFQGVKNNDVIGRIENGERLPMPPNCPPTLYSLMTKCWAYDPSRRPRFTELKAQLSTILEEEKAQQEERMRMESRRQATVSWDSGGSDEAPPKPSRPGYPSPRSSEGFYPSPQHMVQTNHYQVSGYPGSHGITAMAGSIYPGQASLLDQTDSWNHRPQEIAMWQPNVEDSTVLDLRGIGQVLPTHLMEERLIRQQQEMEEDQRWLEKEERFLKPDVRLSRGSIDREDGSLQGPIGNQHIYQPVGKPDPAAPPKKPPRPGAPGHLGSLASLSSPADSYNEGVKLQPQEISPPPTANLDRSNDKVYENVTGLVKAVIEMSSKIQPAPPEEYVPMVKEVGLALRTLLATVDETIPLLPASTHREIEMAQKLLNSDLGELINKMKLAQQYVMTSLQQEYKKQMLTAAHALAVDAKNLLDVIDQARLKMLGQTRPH
UniProt Q9BUB5: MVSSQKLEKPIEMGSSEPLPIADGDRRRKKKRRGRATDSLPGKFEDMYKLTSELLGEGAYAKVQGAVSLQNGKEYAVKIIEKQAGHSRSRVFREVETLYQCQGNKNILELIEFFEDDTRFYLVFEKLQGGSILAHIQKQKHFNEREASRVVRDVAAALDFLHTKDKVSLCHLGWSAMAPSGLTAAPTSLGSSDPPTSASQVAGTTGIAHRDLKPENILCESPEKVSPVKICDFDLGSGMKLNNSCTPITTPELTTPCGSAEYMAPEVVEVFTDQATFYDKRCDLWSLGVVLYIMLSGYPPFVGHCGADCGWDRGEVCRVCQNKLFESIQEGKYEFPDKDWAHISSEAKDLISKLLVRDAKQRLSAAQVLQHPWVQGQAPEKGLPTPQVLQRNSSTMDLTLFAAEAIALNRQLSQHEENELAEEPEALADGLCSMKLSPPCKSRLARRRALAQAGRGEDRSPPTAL
UniProt Q9UQB9: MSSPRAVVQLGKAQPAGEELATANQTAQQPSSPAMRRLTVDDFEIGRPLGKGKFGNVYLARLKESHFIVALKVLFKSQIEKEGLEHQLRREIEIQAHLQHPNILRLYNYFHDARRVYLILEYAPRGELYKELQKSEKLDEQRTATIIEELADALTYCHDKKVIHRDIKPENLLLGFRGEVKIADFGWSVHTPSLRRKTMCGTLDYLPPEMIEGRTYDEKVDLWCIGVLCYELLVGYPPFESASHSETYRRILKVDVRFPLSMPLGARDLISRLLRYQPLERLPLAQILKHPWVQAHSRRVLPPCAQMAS

Measured: number of time points

NTRK3 (UniProt Q16288)
4: [11]
2: [12]
0: [1] | [2] | [3] | [4] | [5] | [6] | [7] | [8]; 2.5 µM | [8]; 10 µM | [9] | [10] | [13] | [14] | [15] | [16] | [17] | [18] | [19] | [20]

LYN (UniProt P07948)
0: [1] | [2] | [3] | [4] | [5] | [6] | [7] | [8]; 2.5 µM | [8]; 10 µM | [9] | [10] | [13] | [14] | [15] | [16] | [17] | [18] | [19] | [20]
1: [11] | [12]

INSRR (UniProt P14616)
0: [1] | [2] | [3] | [4] | [5] | [6] | [7] | [8]; 2.5 µM | [8]; 10 µM | [9] | [10] | [13] | [14] | [15] | [16] | [17] | [18] | [19] | [20]
4: [11]
2: [12]

EGFR_G719S_T790M (UniProt P00533)
0: [1] | [2] | [3] | [4] | [5] | [6] | [7] | [8]; 2.5 µM | [8]; 10 µM | [9] | [10] | [12] | [13] | [14] | [15] | [16] | [17] | [18] | [19] | [20]
2: [11]

CSNK1A1 (UniProt P48729)
3: [11]
0: [1] | [2] | [3] | [4] | [5] | [6] | [7] | [8]; 2.5 µM | [8]; 10 µM | [9] | [10] | [12] | [13] | [14] | [15] | [16] | [17] | [18] | [19] | [20]

RAF1 (UniProt P04049)
1: [12]
2: [11]
0: [1] | [2] | [3] | [4] | [5] | [6] | [7] | [8]; 2.5 µM | [8]; 10 µM | [9] | [10] | [13] | [14] | [15] | [16] | [17] | [18] | [19] | [20]

CDK10 (UniProt Q15131)
3: [11]
0: [1] | [2] | [3] | [4] | [5] | [6] | [7] | [8]; 2.5 µM | [8]; 10 µM | [9] | [10] | [12] | [13] | [14] | [15] | [16] | [17] | [18] | [19] | [20]

CSF1R (UniProt P07333)
3: [11]
0: [1] | [2] | [3] | [4] | [5] | [6] | [7] | [8]; 2.5 µM | [8]; 10 µM | [9] | [10] | [12] | [13] | [14] | [15] | [16] | [17] | [18] | [19] | [20]

PDPK1 (UniProt O15530)
1: [8]; 2.5 µM | [8]; 10 µM
0: [1] | [2] | [3] | [4] | [5] | [6] | [7] | [9] | [10] | [12] | [13] | [14] | [15] | [16] | [17] | [18] | [19] | [20]
4: [11]

PTK2 (UniProt Q05397)
2: [11]
0: [1] | [2] | [3] | [4] | [5] | [6] | [7] | [8]; 2.5 µM | [8]; 10 µM | [9] | [10] | [13] | [14] | [15] | [16] | [17] | [18] | [19] | [20]
1: [12]

MKNK1 (UniProt Q9BUB5)
4: [11]
0: [1] | [2] | [3] | [4] | [5] | [6] | [7] | [8]; 2.5 µM | [8]; 10 µM | [9] | [10] | [13] | [14] | [15] | [16] | [17] | [18] | [19] | [20]
3: [12]

Copied from the results shown (4 entries):
CDK10 (UniProt Q15131)
3: [11]
0: [1] | [2] | [3] | [4] | [5] | [6] | [7] | [8]; 2.5 µM | [8]; 10 µM | [9] | [10] | [12] | [13] | [14] | [15] | [16] | [17] | [18] | [19] | [20]

CSF1R (UniProt P07333)
3: [11]
0: [1] | [2] | [3] | [4] | [5] | [6] | [7] | [8]; 2.5 µM | [8]; 10 µM | [9] | [10] | [12] | [13] | [14] | [15] | [16] | [17] | [18] | [19] | [20]

PDPK1 (UniProt O15530)
1: [8]; 2.5 µM | [8]; 10 µM
0: [1] | [2] | [3] | [4] | [5] | [6] | [7] | [9] | [10] | [12] | [13] | [14] | [15] | [16] | [17] | [18] | [19] | [20]
4: [11]

PTK2 (UniProt Q05397)
2: [11]
0: [1] | [2] | [3] | [4] | [5] | [6] | [7] | [8]; 2.5 µM | [8]; 10 µM | [9] | [10] | [13] | [14] | [15] | [16] | [17] | [18] | [19] | [20]
1: [12]

The listing continues:

RIPK2 (UniProt O43353)
2: [11]
1: [8]; 2.5 µM | [8]; 10 µM
0: [1] | [2] | [3] | [4] | [5] | [6] | [7] | [9] | [10] | [12] | [13] | [14] | [15] | [16] | [17] | [18] | [19] | [20]

AURKC (UniProt Q9UQB9)
0: [1] | [2] | [3] | [4] | [5] | [6] | [7] | [8]; 2.5 µM | [8]; 10 µM | [9] | [10] | [12] | [13] | [14] | [15] | [16] | [17] | [18] | [19] | [20]
3: [11]

TYK2 (UniProt P29597)
0: [1] | [2] | [3] | [4] | [5] | [6] | [7] | [8]; 2.5 µM | [8]; 10 µM | [9] | [10] | [12] | [13] | [14] | [15] | [16] | [17] | [18] | [19] | [20]
4: [11]
